# Earlier results as cited in patent US20080139531A1, “USE OF CONNECTIVE TISSUE MAST CELL STABILIZERS TO FACILITATE OCULAR SURFACE RE-EPITHELIZATION AND WOUND REPAIR” (ALCON MANUFACTURING LTD., priority 2006, published 2008).
# At least one structure is not confirmed: it was looked up by name or label, or the drawing left a doubt.
# Tested on: human conjunctival mast cells
# Conditions: qualitative statement citing Yanni et al., 1997
smiles,measurement,value
O=C(O)c1cc(=O)c2c(OCC(O)COc3cccc4oc(C(=O)O)cc(=O)c34)cccc2o1 [cromolyn],inhibition of histamine release from human conjunctival mast cells,"Unlike cromolyn and pemirolast, olopatadine inhibits histamine release"
